No constants are given. Whether binding was seen depends on the method and setting. Binding calls can cover weak binding; strength is not graded here.
Experiments:
[1] = target: recombinant rat BCMA protein (rat); assay: SPR (Biacore T200)
[2] = target: recombinant rat BCMA protein (rat); assay: SPR (Biacore T200), antibody captured by anti-human Fc IgG on a CM5 chip, BCMA in the mobile phase; concentrations are not printed on the sheet

B1: ADI-38497 PG antibody (antibody, V domains shown)
VH: QLQLQESGPGLVKPSETLSLTCTVSGGSIVSSSYYWTWIRQPPGKGLEWIGSISIAGSTYYNPSLKSRVTISVDTSKNQFSLKLSSVTAADTAVYYCARDRGDQILDVWSQGTMVTVSS
VL: DIQMTQSPSSLSASVGDRVTITCRASQSISRYLNWYQQKPGKAPKLLIYAASSLQSGVPSRFSGSGSGTDFTLTISSLQPEDFATYYCQQKYFDITFGGGTKVEIKR
- binding [1]: binds
- binding [2]: binds

From US20250034268A1
